Measured values published in article PMC10577479.
Results are given in words; binding and its absence hold for the method and conditions named. For part of these data: In cells and extracts the contact can be indirect. Some entries that bind do so weakly or less than the wild type. For part of these data: Tags and fused reporters may be left off the sequences shown. Blank lines part the entries; values can stand above or below the binder they belong to.

Chains of the proteins cited; added tags and fusions are not shown.
UniProt Q7Z434: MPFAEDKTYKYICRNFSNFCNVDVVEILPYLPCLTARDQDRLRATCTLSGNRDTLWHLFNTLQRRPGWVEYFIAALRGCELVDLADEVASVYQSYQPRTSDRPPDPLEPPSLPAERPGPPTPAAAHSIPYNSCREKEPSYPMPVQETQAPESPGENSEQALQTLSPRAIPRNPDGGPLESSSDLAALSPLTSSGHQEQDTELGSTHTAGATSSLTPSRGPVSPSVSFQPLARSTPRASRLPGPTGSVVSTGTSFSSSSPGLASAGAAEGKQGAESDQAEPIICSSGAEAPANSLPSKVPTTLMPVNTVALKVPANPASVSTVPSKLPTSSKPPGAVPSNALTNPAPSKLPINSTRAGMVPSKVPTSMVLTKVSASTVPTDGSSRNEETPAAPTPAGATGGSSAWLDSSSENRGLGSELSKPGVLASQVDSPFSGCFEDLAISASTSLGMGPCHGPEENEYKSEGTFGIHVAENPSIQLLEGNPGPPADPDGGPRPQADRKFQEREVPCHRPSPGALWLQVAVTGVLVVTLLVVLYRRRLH

Experiments:
[1] = target: T1, Retinoic acid-inducible gene I (RIG-I), full length, yeast two-hybrid bait (human) (UniProt O95786); assay: two-hybrid; large-scale yeast two-hybrid screen with full-length RIG-I as bait protein
T1 sequence: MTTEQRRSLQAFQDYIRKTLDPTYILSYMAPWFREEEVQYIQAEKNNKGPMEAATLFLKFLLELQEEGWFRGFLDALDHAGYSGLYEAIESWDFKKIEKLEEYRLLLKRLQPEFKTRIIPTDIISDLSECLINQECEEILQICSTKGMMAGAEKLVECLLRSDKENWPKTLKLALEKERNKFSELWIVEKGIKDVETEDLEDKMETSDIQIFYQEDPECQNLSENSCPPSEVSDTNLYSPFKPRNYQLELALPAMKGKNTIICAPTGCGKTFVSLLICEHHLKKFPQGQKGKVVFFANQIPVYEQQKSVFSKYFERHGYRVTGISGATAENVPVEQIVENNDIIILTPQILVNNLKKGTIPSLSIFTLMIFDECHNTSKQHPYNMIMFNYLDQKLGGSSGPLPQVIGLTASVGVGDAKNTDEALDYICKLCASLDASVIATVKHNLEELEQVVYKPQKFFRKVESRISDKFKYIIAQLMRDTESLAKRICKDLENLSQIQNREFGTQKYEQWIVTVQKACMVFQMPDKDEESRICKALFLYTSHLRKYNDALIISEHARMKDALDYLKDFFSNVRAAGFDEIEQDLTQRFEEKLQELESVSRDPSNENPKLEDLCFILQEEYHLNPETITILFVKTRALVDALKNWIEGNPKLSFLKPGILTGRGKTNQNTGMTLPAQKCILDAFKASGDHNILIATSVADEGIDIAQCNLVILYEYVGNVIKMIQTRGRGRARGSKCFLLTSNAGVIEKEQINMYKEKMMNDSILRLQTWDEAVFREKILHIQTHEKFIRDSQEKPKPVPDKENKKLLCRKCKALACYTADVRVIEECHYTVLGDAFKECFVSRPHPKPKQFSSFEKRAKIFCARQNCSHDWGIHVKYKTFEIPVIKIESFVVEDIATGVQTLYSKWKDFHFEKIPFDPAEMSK

[2] = target: T2, Retinoic acid-inducible gene I (RIG-I), endogenous in 293T cells (human (endogenous in 293T)) (UniProt O95786); assay: co-IP; endogenous proteins; 293T cells uninfected or infected with SeV for 4 or 8 h; lysates immunoprecipitated with control IgG or anti-RIG-I antibody; immunoblot
T2 sequence: T1 sequence

[3] = target: T3, FLAG-tagged RIG-I-N (1-284), N-terminal CARD of RIG-I (human) (UniProt O95786); assay: co-IP; 293T cells transfected with expression plasmids, uninfected or infected with SeV; lysis in 1% Triton, 20 mM Tris-HCl pH 7.5, 150 mM NaCl, 1 mM EDTA; protein G/A-Sepharose beads with the indicated antibodies overnight at 4°C; immunoblot
T3 sequence: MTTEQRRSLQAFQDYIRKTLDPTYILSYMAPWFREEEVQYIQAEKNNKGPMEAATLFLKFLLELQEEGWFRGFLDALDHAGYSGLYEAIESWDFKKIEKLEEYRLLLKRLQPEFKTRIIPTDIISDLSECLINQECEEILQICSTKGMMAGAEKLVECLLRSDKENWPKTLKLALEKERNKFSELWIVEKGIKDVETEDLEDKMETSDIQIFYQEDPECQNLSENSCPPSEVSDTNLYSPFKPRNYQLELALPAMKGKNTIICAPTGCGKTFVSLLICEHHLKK

[4] = target: T4, Retinoic acid-inducible gene I (RIG-I), transfected in 293T cells (Figures 1A and 1E; tag not told) (human) (UniProt O95786); assay: as above
T4 sequence: T1 sequence

[5] = target: Mitochondrial antiviral signaling (MAVS) protein, transfected in 293T cells (UniProt Q7Z434); assay: as above
HA-RIG-I (human) = target: T5, HA-RIG-I (human) (UniProt O95786); assay: as above
T5 sequence: T1 sequence

B2: Zinc finger protein 205 (ZNF205), endogenous in 293T cells (protein, UniProt O95201 1-554)
chain: MSADGGGIQDTQDKETPPEVPDRGHPHQEMPSKLGEAVPSGDTQESLHIKMEPEEPHSEGASQEDGAQGAWGWAPLSHGSKEKALFLPGGALPSPRIPVLSREGRTRDRQMAAALLTAWSQMPVTFEDVALYLSREEWGRLDHTQQNFYRDVLQKKNGLSLGFPFSRPFWAPQAHGKGEASGSSRQAGDEKEWRGACTGAVEVGQRVQTSSVAALGNVKPFRTRAGRVQWGVPQCAQEAACGRSSGPAKDSGQPAEPDRTPDAAPPDPSPTEPQEYRVPEKPNEEEKGAPESGEEGLAPDSEVGRKSYRCEQCGKGFSWHSHLVTHRRTHTGEKPYACTDCGKRFGRSSHLIQHQIIHTGEKPYTCPACRKSFSHHSTLIQHQRIHTGEKPYVCDRCAKRFTRRSDLVTHQGTHTGAKPHKCPICAKCFTQSSALVTHQRTHTGVKPYPCPECGKCFSQRSNLIAHNRTHTGEKPYHCLDCGKSFSHSSHLTAHQRTHRGVRPYACPLCGKSFSRRSNLHRHEKIHTTGPKALAMLMLGAAAAGALATPPPAPT
binding [2]: binds

B4: Zinc finger protein 205 (ZNF205), transfected in 293T cells (Figure 1A; tag not told) (protein, UniProt O95201 1-554)
chain: B2 chain
binding [4]: binds
binding [5]: binds

B5: FLAG-tagged ZNF205 (aa300-554), C-terminal zinc finger domain (domain or fragment, UniProt O95201 300-554)
chain: DSEVGRKSYRCEQCGKGFSWHSHLVTHRRTHTGEKPYACTDCGKRFGRSSHLIQHQIIHTGEKPYTCPACRKSFSHHSTLIQHQRIHTGEKPYVCDRCAKRFTRRSDLVTHQGTHTGAKPHKCPICAKCFTQSSALVTHQRTHTGVKPYPCPECGKCFSQRSNLIAHNRTHTGEKPYHCLDCGKSFSHSSHLTAHQRTHRGVRPYACPLCGKSFSRRSNLHRHEKIHTTGPKALAMLMLGAAAAGALATPPPAPT
binding (HA-RIG-I (human)): binds

More lines, now with the values ahead:

binding [1]: binds
B1: Zinc finger protein 205 (ZNF205), yeast two-hybrid prey (protein, UniProt O95201 1-554)
chain: B2 chain

binding [3]: binds
B3: myc-ZNF205 (protein, UniProt O95201 1-554)
chain: B2 chain
